# Screening data

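A cell-based FRET test of anthrax lethal toxin entry, tracked through the 460 nm emission signal; the cell line is not named here.
Each compound was tested as a concentration series from about 0.0005 to 40 µM.
The number is the fitted AC50 of the 460 nm signal alone; lower values mean a more potent effect. A falling signal goes with compounds filed as inhibitors or cytotoxic, a rising one with activators or fluorescent compounds (inferred from the filed classes).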

Values are in µM.
Common to all entries: measured here: 460 nm channel.
Part of the compounds only, not a random draw; the main read-out is not listed here.
Potencies fitted to partial, single-point or poorly fitting curves are rough.
The first word of each remark tells which way the curve ran; it can be opposite to the aim of the assay.

Compound | AC50 (µM) | curve as filed
CC(C)(C)c1ccc(Cn2nnc3c(=O)[nH]c(C4CCN(C(=O)Cc5cccs5)CC4)nc32)cc1 | 31.62 | falling, single point
CCC1(c2ccc(F)cc2)NC(=O)N(CC(=O)c2ccc[nH]2)C1=O (stereo unspecified) | 12.59 | rising, single point
COc1ccccc1C(=O)NCCn1cc(SCC(=O)Nc2nnc(C)s2)c2ccccc21 | 12.59 | rising, single point
Fc1ccc(C(OCCN2CCN(CCCc3ccccc3)CC2)c2ccc(F)cc2)cc1 | 31.62 | falling, partial curve, poor fit
C[C@@H](CO)NC(=O)[C@H]1C=C2c3cccc4[nH]cc(c34)C[C@H]2N(C)C1 | 10 | falling, partial curve
c1ccc(-c2ccc(N3CC[C@@]4(CCCNC4)C3)cc2)cc1 | 3.981 | rising, single point
CCn1c(SCC(=O)c2c(N)n(C)c(=O)n(C)c2=O)nc2sc(C)c(C)c2c1=O | 0.01 | falling, full curve, poor fit
Cc1ccc(-n2c(C)cc(C3N=C(N)Nc4nc5ccccc5n43)c2C)c(C)c1 (stereo unspecified) | 10 | falling, single point
CCOc1ccc(N2CC(C(=O)Nc3ccc(S(=O)(=O)N4CCOCC4)cc3)CC2=O)cc1 (stereo unspecified) | 0.3981 | rising, single point
COc1cccc(-n2nnc3c(=O)n(Cc4ccc(F)cc4)cnc32)c1 | 31.62 | rising, partial curve
C=CCn1c(Sc2nncn2C)nc2c1c(=O)[nH]c(=O)n2C | 5.012 | falling, partial curve, poor fit
CC(=O)NC(C)C(=O)OCC(=O)c1ccc(Cl)s1 (stereo unspecified) | 31.62 | falling, single point
O=S(=O)(NCc1ccc2c(c1)OCO2)c1cccc2cccnc12 | 12.59 | falling, single point
Cc1cc(NCCCN2CCOCC2)n2c(nc3ccccc32)c1C#N | 25.12 | rising, single point
CCNc1ncc2nc(-c3cc(F)cc(F)c3)c(=O)n(-c3ccccc3)c2n1 | 2.512 | rising, full curve
[N-]=[N+]=N[C@@H]1[C@H](O)[C@H](CO)O[C@@H]1n1cnc2c(N)ncnc21 | 5.012 | rising, single point
CC(=O)Cn1c(C(F)(F)F)nc2ccccc21 | 25.12 | rising, single point
Cc1cc(C)cc(NC(=O)CSc2nnc(Cc3cccn3C)n2-c2ccc(F)cc2)c1 | 31.62 | falling, single point
CCN(CC)CCCNC(=O)c1sc2nc(-c3ccc(F)cc3)cn2c1C | 10 | falling, partial curve
CCn1cc(C(=O)NC2CC3CCC2C3)c(=O)c2ccc(C)nc21 (stereo unspecified) | 5.012 | rising, single point
Nc1nc(N)c2nc(-c3ccccc3)c(N)nc2n1 | 25.12 | rising, partial curve
Cc1cc2nc(N)sc2cc1C | 31.62 | falling, single point
O=C(CCCOc1ccccc1)N1CCN(C(=O)c2ccco2)CC1 | 0.01585 | rising, full curve
O=C(c1ccc(Cl)cc1Cl)N1CCC(c2nc3c(nnn3Cc3ccco3)c(=O)[nH]2)CC1 | 10 | rising, single point
COC(=O)c1ccc(OC(=O)c2ccc(OCc3c(C)noc3C)c(OC)c2)cc1 | 0.007943 | falling, full curve, poor fit
O=C(NCCCn1ccnc1)c1cn(-c2ccccc2)nc1-c1ccccc1 | 5.012 | rising, single point
CCn1c(Cc2ccccc2)nnc1SCC(=O)Nc1nc2ccccc2s1 | 3.981 | falling, single point
O=c1c2ccccc2nc(-c2ccco2)n1-c1ccc(Br)cn1 | 5.012 | rising, single point
COc1cccc(Nc2ncc3ncc(=O)n(Cc4cccs4)c3n2)c1 | 25.12 | rising, single point
COC(=O)[C@@]1(Cc2ccccc2)[C@H]2c3cc(C(=O)N4CCCC4)n(C)c3C[C@H]2CN1C(=O)c1ccccc1 | 31.62 | rising, single point
c1ccc2c(c1)Nc1ccccc1S2 | 15.85 | falling, partial curve, poor fit
CCOC(=O)OCC1OC(c2ccc(C(C)=O)cc2)C=CC1Oc1ccc(-c2ccccc2)cc1 (stereo unspecified) | 1.995 | falling, partial curve, poor fit
Cc1ccccc1CS(=O)(=O)c1nnc([C@H](CC(C)C)NC(=O)OC(C)(C)C)o1 | 12.59 | falling, partial curve
ClC1=C(Cl)C2(Cl)C3C4C=CC(C4)C3C1(Cl)C2(Cl)Cl (stereo unspecified) | 10 | falling, full curve
Cc1cccc2cc(CN(CC3CCCO3)C(c3nnnn3Cc3ccco3)C(C)C)c(=O)[nH]c12 (stereo unspecified) | 0.03162 | falling, full curve, poor fit
CCOC(=O)c1oc2cccc(OC(C)=O)c2c1C | 0.007943 | falling, full curve
CCC12CN3CC(CC)(CN(C1)C3c1ccccc1Cl)C2O (stereo unspecified) | 0.1259 | falling, full curve, poor fit
CC1(C)C(=O)C(c2ccccc2)=C2CN3C(=O)N(CCc4ccccc4)C(=O)C3(Cc3ccccc3)C=C21 (stereo unspecified) | 10 | falling, partial curve
CCOC(=O)c1sc(NC(=O)c2cccs2)cc1C | 25.12 | rising, single point

From PubChem BioAssay record AID912 (NCATS, 2007).